Literature values in US7285298B2, “Use of a dihydrochalcone-rich phenolic fraction in a cosmetic treatment” (Diana Ingredients S.A., priority 2002, dated 2007).
For at least one compound, name, drawing or mass did not settle the structure.

Conditions: cow, 2 to 4 grams per day for 48 h, subcutaneous injection

O=C(CCc1ccc(O)cc1)c1c(O)cc(O)cc1O[C@@H]1O[C@H](CO)[C@@H](O)[C@H](O)[C@H]1O [phloridzin]
glucose and insulin contents of the blood plasma: drastic reduction
